In PubChem BioAssay AID493014 (National Center for Advancing Translational Sciences (NCATS), 2011):
The other results are listed elsewhere or left out. Shown are side measurements of this screen, not its main read-out; they come without a call. Most of these compounds were active or inconclusive in the main read-out, so they are no random draw. The note in brackets gives the kind of curve behind each potency; many fits are weak.

Test: qHTS Assay to Find Inhibitors of Chronic Active B-Cell Receptor Signaling
Settings: ABC-DLBCL IkBa-CBG/CBR reporter, luminescence ratio (green luciferase fused to IkBa over red control in TMD8 lymphoma cells), 4 h
Method in brief: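 TMD8 ABC-DLBCL cells carrying doxycycline-inducible green luciferase fused to IkappaBalpha plus unfused red luciferase were exposed to compounds (up to 46 uM) for 4 hrs at 37C. Activity came from the overlap-corrected green/red luminescence ratio.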

[1] = measured here: CBR red luminescence, cell number
[2] = measured here: IkBa-CBG green luminescence

## O=C(Nc1cccc(Cl)c1)c1ccc(NCCCN2CCOCC2)c([N+](=O)[O-])c1
[1]
  AC50: 10 µM [falling, partial curve]

## Cc1ccc(S(=O)(=O)N/N=C/c2cc(Br)ccc2O)cc1
[1]
  AC50: 3.98 µM [falling, partial curve, poor fit]

## O=C(O)c1ccc(N2C(=O)/C(=C\c3ccccc3)N=C2c2ccccc2)cc1
[1]
  AC50: 11.2 µM [falling, partial curve, poor fit]

## Cc1ccc(CNC(=O)c2cccc3c2C(=O)c2ccc(N4CCOCC4)cc2S3(=O)=O)cc1
[1]
  AC50: 29.1 µM [falling, single point]

## CCn1nnnc1SCCSc1nnnn1CC
[1]
  AC50: 9.2 µM [rising, partial curve, poor fit]

## Cc1nc2scc(-c3ccccc3)c2c(=O)n1N=C1C=CC(=O)C=C1
[1]
  AC50: 11.2 µM [falling, partial curve, poor fit]

## O=C(Nc1ccc(Oc2cccnc2)cc1)c1ccccc1F
[1]
  AC50: 35.5 µM [falling, single point]

## COC(=O)c1sccc1N/N=C/c1cccc(OC)c1O
[1]
  AC50: 0.366 µM [falling, full curve, poor fit]

## Cc1ccc(-c2csc(NC(=O)CSc3ncn(-c4ccccc4)n3)n2)cc1
[1]
  AC50: 6.51 µM [rising, single point]

## c1csc(-c2ccc(N3CCOCC3)nn2)c1
[1]
  AC50: 0.562 µM [rising, full curve, poor fit]

## O=C(Nc1nc(COc2ccccc2)cs1)C12CC3CC(CC(C3)C1)C2
[1]
  AC50: 14.6 µM [falling, partial curve]

## COc1ccc(-c2nc3sc(CCNC(=O)C(=O)Nc4ccc(C)c(F)c4)c(C)n3n2)cc1
[1]
  AC50: 15.8 µM [falling, single point]

## CCCCOc1ccc(C(=O)NCCc2ccccc2)cc1
[1]
  AC50: 2.24 µM [rising, full curve, poor fit]

## COc1cc(-c2noc(C)c2C#Cc2ccc(N)cc2)cc(OC)c1OC
[1]
  AC50: 2.82 µM [rising, full curve, poor fit]
[2]
  AC50: 3.98 µM [falling, full curve]

## CC(=O)c1sc(Nc2nc(C)cc(C)n2)nc1C
[1]
  AC50: 7.31 µM [falling, single point]

## COc1cc(OC)cc(C(=O)Nc2ccc3c(c2)OCCO3)c1
[1]
  AC50: 14.1 µM [falling, partial curve]

## CCn1cc(C(=O)O)c(=O)c2cc(F)c(N3CCN(C(=S)NC(=O)c4ccccc4)CC3)cc21
[1]
  AC50: 35.5 µM [rising, single point]

## O=C(NCc1ccc2c(c1)OCO2)c1ccc2c(c1)C(=O)N(Cc1cccnc1)C2=O
[1]
  AC50: 16.4 µM [rising, single point]

## CC(=O)C1=C(c2ccc(Cl)c(Cl)c2)N(C(C)=O)n2cnnc2S1
[1]
  AC50: 0.501 µM [falling, full curve, poor fit]
[2]
  AC50: 35.5 µM [falling, single point]

## CC(=O)NCc1ccc(C(=O)CSc2nnc(C3CC3)n2C2CC2)cc1
[1]
  AC50: 14.6 µM [falling, partial curve, poor fit]

## O=C(O)c1ccc(N2C(=O)c3cccnc3C2=O)cc1
[1]
  AC50: 12.6 µM [falling, single point]

## O=C1C(c2ccccc2)SC(=Nc2ccccc2)N1S(=O)(=O)c1ccccc1 (configuration not stated)
[1]
  AC50: 4.11 µM [falling, full curve]

## COCCN(C(=O)COC(=O)c1ccccc1Cc1ccccc1)c1c(N)n(Cc2ccccc2)c(=O)[nH]c1=O
[1]
  AC50: 23.1 µM [falling, partial curve, poor fit]

## COc1cc(N2CCCC2)c(OC)cc1/C=C(/C#N)c1cccc(Br)c1
[1]
  AC50: 29.1 µM [rising, single point]

## CCOC(=O)c1nc2cc3n(c(C)c-2c1C)C(C)C(C)=C3C (configuration not stated)
[1]
  AC50: 5.8 µM [falling, single point]

## COc1ccc(OCCOc2ccc(/C=C3\C(=N)N4N=C(C)SC4=NC3=O)cc2)cc1
[1]
  AC50: 29.1 µM [rising, single point]

## Cc1ccc(C(=O)N2N=C(c3ccc(Br)cc3)CC2c2ccccc2O)cc1 (configuration not stated)
[1]
  AC50: 15.8 µM [falling, partial curve, poor fit]

## Cc1nc(N)sc1-c1csc(Nc2cccc(C(=O)O)c2)n1
[1]
  AC50: 25.1 µM [falling, single point]

## Clc1ccc(COc2ccccn2)c(Cl)c1
[1]
  AC50: 3.16 µM [rising, partial curve, poor fit]

## O=C(Nc1ccc(Cl)cc1)Nc1ccc(Oc2cccnc2)nc1
[1]
  AC50: 0.794 µM [rising, full curve, poor fit]

## O=C1c2cccnc2C(Nc2ccc(S(=O)(=O)N3CCCCCC3)cc2)N1Cc1ccccc1 (configuration not stated)
[1]
  AC50: 6.31 µM [falling, partial curve]

## CN(C)CCNC(=O)C1(O)c2cc(Br)ccc2NC(=O)N1c1ccc(Cl)cc1 (configuration not stated)
[1]
  AC50: 10 µM [rising, partial curve, poor fit]

## CCCCn1c(N)c(N(CCOC)C(=O)c2ccc(N3CCCC3=O)cc2)c(=O)[nH]c1=O
[1]
  AC50: 13 µM [rising, partial curve, poor fit]

## CCN(CC)CCNC(=O)Cn1c(-c2ccccn2)nc2ccccc21
[1]
  AC50: 29.1 µM [rising, single point]

## O=C(Nc1cccc(/C=C/c2nc3ccccc3c(=O)[nH]2)c1)c1ccccc1Cl
[1]
  AC50: 0.398 µM [falling, full curve]
[2]
  AC50: 0.398 µM [rising, full curve, poor fit]

## COc1ccc(CCNC(=O)C2CC(c3cccc(F)c3)=NO2)cc1 (configuration not stated)
[1]
  AC50: 0.891 µM [rising, single point]

## Cc1cc2nn(-c3ccc(F)cc3)nc2cc1N
[1]
  AC50: 0.794 µM [rising, full curve, poor fit]

## CCOC(=O)C1CCN(C(=O)COc2ccc([N+](=O)[O-])cc2)CC1
[1]
  AC50: 11.2 µM [falling, partial curve]

## Cc1ccnc(SCC(=O)N2CCc3ccccc3C2)n1
[1]
  AC50: 8.91 µM [rising, partial curve, poor fit]

## COc1ccccc1NC1=NCC(=O)N1Cc1ccccc1
[1]
  AC50: 7.94 µM [falling, partial curve]

## O=C(COc1ncnc2sccc12)NC1CCS(=O)(=O)C1 (configuration not stated)
[1]
  AC50: 11.2 µM [falling, partial curve, poor fit]

## CCOC(=O)c1n[nH]n2c1nc(=O)c1ccccc12
[1]
  AC50: 6.31 µM [falling, partial curve, poor fit]

## CCC(=O)N(CCC1(C(C)C)CCOC(C)(C)C1)C(C)c1cccs1 (configuration not stated)
[1]
  AC50: 11.2 µM [falling, partial curve, poor fit]

## CC(C)c1nnc(NC(=O)C2CCCCC2)s1
[1]
  AC50: 0.0651 µM [rising, full curve, poor fit]

## Cc1cccc(NC(=O)C(C)n2cc([N+](=O)[O-])cn2)n1 (configuration not stated)
[1]
  AC50: 3.55 µM [rising, partial curve, poor fit]

## Cc1ccc(NC(=S)N2CCCCC2)cc1C
[1]
  AC50: 11.2 µM [rising, single point]

## Cc1ccc(NC(=O)c2ccccc2F)nc1
[1]
  AC50: 29.1 µM [falling, single point]

## Cc1onc(-c2ccccc2)c1C(=O)Nc1ccc(Br)cc1Cl
[1]
  AC50: 2.24 µM [falling, full curve]

## C=CCn1c(CNc2ccc(C)cc2)nnc1SCC(=O)N/N=C/c1ccc(O)cc1
[1]
  AC50: 5.62 µM [falling, single point]

## COc1ccc(CN=C2NN=C(c3ccccc3)CS2)cc1
[1]
  AC50: 35.5 µM [falling, single point]

## COc1cccc(CNC23CC4CC(CC(C4)C2)C3)c1OCc1ccccc1
[1]
  AC50: 12.6 µM [falling, single point]

## C#CCOCCOCCOCCNc1nc(N2CCOCC2)nc(N2CCN(C(=O)[C@H](CCCCN)n3cc([C@@H](N)CC(C)C)nn3)CC2)n1
[1]
  AC50: 12.6 µM [rising, partial curve, poor fit]

## CN(C)c1ccc(NC(N)=S)cc1
[1]
  AC50: 11.6 µM [rising, partial curve]

## CCCCC(=O)OCC(=O)N1N=C(c2c[nH]c3ccccc23)C(O)C1c1ccc(OC)cc1 (configuration not stated)
[1]
  AC50: 35.5 µM [falling, single point]

## Cc1c(C#N)c(N=CN(C)C)c(C(=O)c2ccc(Br)cc2)n1-c1ccccc1
[1]
  AC50: 1.64 µM [rising, single point]

## O=c1c(Cc2ccccc2)c(O)c2cccc3c4c(n1c23)CCCC4
[1]
  AC50: 12.6 µM [falling, partial curve, poor fit]

## Cn1ncc(C(=O)Nc2ccc(Cl)cc2)c1C(F)(F)F
[1]
  AC50: 15.8 µM [falling, single point]

## Cc1ccc(C2=NN(C(=O)CCC(=O)O)C(c3cccc([N+](=O)[O-])c3)C2)cc1 (configuration not stated)
[1]
  AC50: 35.5 µM [falling, partial curve, poor fit]

## CCn1c(SCC(=O)Nc2nccs2)nnc1-c1ccc(C)cc1
[1]
  AC50: 10.3 µM [falling, partial curve]

## C/C(=N\Nc1cccc2cccnc12)c1ccc(C)cc1
[1]
  AC50: 35.5 µM [falling, single point]

## COc1ccccc1C(=O)COC(=O)C1(C)CC1(Cl)Cl (configuration not stated)
[1]
  AC50: 13 µM [rising, partial curve, poor fit]

## COc1ccccc1-c1cc(C(=O)NCCc2ccccc2)no1
[1]
  AC50: 16.4 µM [falling, partial curve]
[2]
  AC50: 20.6 µM [falling, partial curve, poor fit]

## Nc1nc(=S)c2ncn(C3CCCC3)c2[nH]1
[1]
  AC50: 0.501 µM [falling, full curve, poor fit]
